Results reported in the supplement of paper PMC4683952.
Where a name gives a salt, the structure may show the parent alone. The list shows a part of the results. Rule as the data show it: active = 2.5 or more and inactive = the rest. Most values lie within the scatter of the assay; repeated measurements hardly agree.

Test system: Lgr5 (MarsCy1-Lgr5-EGFP, U2OS)
Assay: cell-surface Lgr5 expression (SCi1 fluorescence, background-subtracted) relative to WT control (fold of WT control); higher = more Lgr5 at the plasma membrane
Conditions: U2OS MarsCy1-Lgr5-EGFP stable; treatment time: overnight; library: Prestwick; 20 µM

Row | Compound | cell-surface Lgr5 expression
1 | Cc1nc2ccccn2c(=O)c1CCN1CCC(C(=O)c2ccc(F)cc2)CC1 [Pirenperone] | active: 3.24
2 | CN1C(=O)CC[C@H]1c1cccnc1 [Cotinine (-)] | inactive: 1.65
3 | CC[C@@H]1C(=O)OC[C@@H]1Cc1cncn1C [Pilocarpine nitrate] | inactive: 2.11
4 | CC(O)Cn1cnc2c1c(=O)n(C)c(=O)n2C (centres undefined) [Proxyphylline] | active: 3.03
5 | CC(C)NC[C@@H](O)COc1ccc(CC(N)=O)cc1 [(R)-(+)-Atenolol] | inactive: 1.47
6 | NS(=O)(=O)c1cc2c(cc1C(F)(F)F)NCNS2(=O)=O [Hydroflumethiazide] | inactive: 1.06
7 | CC(=O)NS(=O)(=O)c1ccc(N)cc1 [Sulfacetamide sodic hydrate] | inactive: 1.04
8 | COc1cccc2c1C(=O)c1c(O)c3c(c(O)c1C2=O)C[C@@](O)(C(C)=O)C[C@@H]3O[C@H]1C[C@H](N)[C@H](O)[C@H](C)O1 [Daunorubicin hydrochloride] | inactive: 1.84
9 | CO[C@@H]1[C@@H](O[C@@H]2O[C@H](C)[C@@H](O[C@H]3C[C@@](C)(O)[C@@H](OC(=O)CC(C)C)[C@H](C)O3)[C@H](N(C)C)[C@H]2O)[C@@H](CC=O)C[C@@H](C)[C@@H](O)/C=C/C=C/C[C@@H](C)OC(=O)C[C@H]1OC(C)=O [Josamycin] | inactive: 0.851
10 | CCC(=O)O[C@@H]1CC(=O)O[C@H](C)C/C=C/C=C/[C@H](O)[C@H](C)C[C@H](CC=O)[C@H](O[C@@H]2O[C@H](C)[C@@H](O[C@H]3C[C@@](C)(O)[C@@H](OC(=O)CC)[C@H](C)O3)[C@H](N(C)C)[C@H]2O)[C@H]1OC [Midecamycin] | inactive: 1.07
11 | CCN(CC)CC(=O)Nc1c(C)cccc1C [Lidocaïne hydrochloride] | inactive: 1.72
12 | COC(=O)C1=CO[C@@H](C)[C@H]2CN3CCc4c([nH]c5ccccc45)[C@@H]3C[C@H]12 [Ajmalicine hydrochloride] | inactive: 1.66
13 | CC(=O)OCC(=O)[C@@]12OC(C)(C)O[C@@H]1C[C@H]1[C@@H]3C[C@H](F)C4=CC(=O)C=C[C@]4(C)[C@@]3(F)[C@@H](O)C[C@@]12C [Fluocinonide] | active: 3.1
14 | c1ccc2c(CC3=NCCN3)cccc2c1 [Naphazoline hydrochloride] | inactive: 1.22
15 | CN1CCN(C(c2ccccc2)c2ccccc2)CC1 [Cyclizine hydrochloride] | inactive: 1.99
16 | OCCN(CCO)c1nc(N2CCCCC2)c2nc(N(CCO)CCO)nc(N3CCCCC3)c2n1 [Dipyridamole] | inactive: 0.97
17 | O=C(O)c1ccccc1C(=O)Nc1ccc(S(=O)(=O)Nc2nccs2)cc1 [Phthalylsulfathiazole] | inactive: 1.29
18 | CN1CCC(=C2c3ccccc3Sc3ccccc32)CC1 [Pimethixene maleate] | inactive: 1.51
19 | N[C@@H](Cc1cc(I)c(Oc2ccc(O)c(I)c2)c(I)c1)C(=O)O [Liothyronine] | inactive: 1.91
20 | NC[C@@H]1O[C@@H](O[C@H]2[C@H](O)[C@@H](O[C@H]3O[C@H](CO)[C@@H](O)[C@H](N)[C@H]3O)[C@H](N)C[C@@H]2N)[C@@H](O)[C@H](O)[C@H]1O [Kanamycin A sulfate] | inactive: 1.59
21 | CC1CC(OC(=O)c2ccccc2O)CC(C)(C)C1 (centres undefined) [Homosalate] | inactive: 1.01
22 | C[C@H](CCC(=O)O)[C@H]1CC[C@H]2[C@@H]3[C@@H](O)C[C@@H]4C[C@H](O)CC[C@]4(C)[C@H]3CC[C@]12C [Urosiol] | inactive: 1.66
23 | C#C[C@]1(O)CC[C@H]2[C@@H]3CCC4=CCCC[C@@H]4[C@H]3CC[C@@]21C [Lynestrenol] | inactive: 0.896
24 | O=C(CCCN1CCN(c2ccccn2)CC1)c1ccc(F)cc1 [Azaperone] | inactive: 1.11

A few values from above.
For cell-surface Lgr5 expression, CC(C)NC[C@@H](O)COc1ccc(CC(N)=O)cc1 [(R)-(+)-Atenolol] has the entry inactive: 1.47
For cell-surface Lgr5 expression, CC1CC(OC(=O)c2ccccc2O)CC(C)(C)C1 (centres undefined) [Homosalate] has the entry inactive: 1.01
